Laboratory results from US20250305055A1, “PROGNOSTIC/PREDICTIVE BREAST CANCER SIGNATURE” (priority 2021, published 2025).
For at least one compound, name, drawing or mass did not settle the structure.

Test system: breast cancer cell lines BT20, MDA-MB-231 and SUM-i 159
Test: Drug response: breast cancer cell line proliferation inhibition
Type: cell-based
Conditions: same dose as in the triple-drug combinations, BT20, MDA-MB-231, SUM-i 159, FIG. 9
Experimental: The breast cancer cell lines BT20, MDA-MB-231 and SUM-i 159 were treated with HDAC inhibitor (MS275), ISP inhibitor (17-AAG), mTOR inhibitor (Niclosamide), polo-like kinase inhibitor (1312536) and histone demethylase inhibitor (GSK-J4).

C=CCNC1=C2C[C@@H](C)C[C@H](OC)[C@H](O)[C@@H](C)/C=C(\C)[C@H](OC(N)=O)[C@@H](OC)/C=C\C=C(/C)C(=O)NC(=CC1=O)C2=O [17-AAG, Tanespimycin]
inhibition of breast cancer cell line proliferation, single treatment: ineffective
